Drawing on PMC3244432, this text covers binding for one substance.

Amino acid sequences for entries named in this document (tags omitted).
UniProt Q15691: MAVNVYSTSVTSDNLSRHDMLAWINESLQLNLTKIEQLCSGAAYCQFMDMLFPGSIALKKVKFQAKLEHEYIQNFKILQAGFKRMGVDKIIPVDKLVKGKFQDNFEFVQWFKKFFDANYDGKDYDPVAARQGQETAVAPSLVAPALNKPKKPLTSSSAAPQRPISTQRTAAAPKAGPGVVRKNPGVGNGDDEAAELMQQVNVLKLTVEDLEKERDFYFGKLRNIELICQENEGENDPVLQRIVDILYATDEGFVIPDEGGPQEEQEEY
UniProt Q9JK25: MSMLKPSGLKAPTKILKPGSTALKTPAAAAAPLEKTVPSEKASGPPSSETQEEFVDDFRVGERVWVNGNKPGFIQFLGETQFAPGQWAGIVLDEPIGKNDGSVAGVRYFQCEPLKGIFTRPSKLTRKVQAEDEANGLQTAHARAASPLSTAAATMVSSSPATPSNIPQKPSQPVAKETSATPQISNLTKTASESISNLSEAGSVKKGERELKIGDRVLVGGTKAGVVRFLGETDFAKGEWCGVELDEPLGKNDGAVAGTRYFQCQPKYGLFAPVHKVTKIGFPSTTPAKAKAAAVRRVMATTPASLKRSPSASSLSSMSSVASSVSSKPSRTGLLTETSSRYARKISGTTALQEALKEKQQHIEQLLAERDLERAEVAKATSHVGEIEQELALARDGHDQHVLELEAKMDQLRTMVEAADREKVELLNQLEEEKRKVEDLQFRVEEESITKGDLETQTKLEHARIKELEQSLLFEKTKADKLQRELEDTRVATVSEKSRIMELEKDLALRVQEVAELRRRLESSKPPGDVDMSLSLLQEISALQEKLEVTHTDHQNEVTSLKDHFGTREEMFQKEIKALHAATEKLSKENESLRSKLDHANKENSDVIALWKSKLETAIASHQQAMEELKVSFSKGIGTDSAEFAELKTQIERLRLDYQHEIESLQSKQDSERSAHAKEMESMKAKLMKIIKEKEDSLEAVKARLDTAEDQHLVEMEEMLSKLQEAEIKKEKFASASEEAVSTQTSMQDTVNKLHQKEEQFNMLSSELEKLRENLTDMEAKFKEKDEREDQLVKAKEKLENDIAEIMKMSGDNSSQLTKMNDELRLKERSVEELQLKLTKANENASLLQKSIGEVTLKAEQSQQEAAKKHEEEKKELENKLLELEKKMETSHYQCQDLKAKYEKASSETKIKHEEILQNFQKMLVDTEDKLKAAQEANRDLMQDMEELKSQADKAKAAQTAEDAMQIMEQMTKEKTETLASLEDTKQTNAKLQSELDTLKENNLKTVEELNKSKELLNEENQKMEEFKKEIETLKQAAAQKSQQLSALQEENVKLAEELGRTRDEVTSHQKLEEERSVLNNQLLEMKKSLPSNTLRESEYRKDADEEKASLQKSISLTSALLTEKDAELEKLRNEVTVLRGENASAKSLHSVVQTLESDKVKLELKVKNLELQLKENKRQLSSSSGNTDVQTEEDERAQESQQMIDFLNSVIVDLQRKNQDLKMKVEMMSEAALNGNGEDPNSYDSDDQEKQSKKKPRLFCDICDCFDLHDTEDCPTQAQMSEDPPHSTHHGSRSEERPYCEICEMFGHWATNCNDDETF

The experiment deals with GST-EB1 (UniProt Q15691). The experiment in a line: pull-down; GST-EB1 on glutathione-agarose beads pre-incubated with saturating amounts of antibody 1A11 or non-specific IgG 4 U, washed, then used in precipitations from NRK-52E cell extracts (or extracts of cells expressing GFP-APC-C3); SDS-PAGE and Western blotting; only the target purified.

No constants are given. Whether binding was seen depends on the method and setting. In cells and extracts the contact can be indirect. Some entries that bind do so weakly or less than the wild type.

Turning to CLIP-170 (from UniProt Q9JK25 1-1320), the binding result was “binds”.
